Paper doi:10.1101/2022.01.19.477021
These are yes or no findings as the source states them, for the method shown.

How the values were obtained:
[1] = molecular target: Crn1-IDR (intrinsically disordered region, aa 401-604) (S. cerevisiae) (UniProt Q06440); experiment: AUC
[2] = molecular target: Crn1-ΔCC (aa 1-604) (S. cerevisiae) (UniProt Q06440); experiment: AUC

| binding [1] | binding [2] | Binder |
| --- | --- | --- |
| no binding (tested: 3 µM) |  | Crn1-IDR (intrinsically disordered region, aa 401-604) (domain or fragment, UniProt Q06440 401-604) RSIYDGSAPSFHEAKRPQQPTTQETALEEKKEQPKVEKPISESEKEVKQEAPKSPSPLKSASSSSTINHVLKEDNSINKLLKKSSDIDQVNNAEDPSRDTSGWEEADDEPAPIKIETPVTPTETKKDRTPKVEPSKELKPEPVSIATDRKQEQSLPQEEKSSEKTKSPEQEKSATPPSSITAAKTAITASSKEEPSAARTSPKS |
|  | no binding (tested: 9.2 µM) | Crn1-ΔCC (aa 1-604) (domain or fragment, UniProt Q06440 1-604) MSGKFVRASKYRHVFGQAAKKELQYEKLKVTNNAWDSNLLKTNGKFIAVNWNASGGGAFAVIPIEEVGKAPDQVPLFRGHTAQVLDTDFDPFNDHRIASGSDDSKIGIWDIPENYKFHDHVDEDGEPIDIKPVKFLTGHARKVGHVLYHPVAENVLASSSGDYTVKLWNVETGKDMITLKHPDMVTSMSFSYDGNYLATVARDKKLRVWNIREEKIVSEGPAHTGAKNQRVVWLGNSDRLATTGFSKLSDRQIGIWDAFNIEKGDLGGFYTVDQSSGILMPFYDEGNKILYLVGKGDGNIRYYEFQNDELFELSEFQSTEAQRGFAVAPKRMVNVKENEVLKGFKTVVDQRIEPVSFFVPRRSEEFQEDIYPDAPSNKPALTAEEWFSGKSVEGPILVSMRSIYDGSAPSFHEAKRPQQPTTQETALEEKKEQPKVEKPISESEKEVKQEAPKSPSPLKSASSSSTINHVLKEDNSINKLLKKSSDIDQVNNAEDPSRDTSGWEEADDEPAPIKIETPVTPTETKKDRTPKVEPSKELKPEPVSIATDRKQEQSLPQEEKSSEKTKSPEQEKSATPPSSITAAKTAITASSKEEPSAARTSPKS |
